Results as given in publication PMC12752501.
No constants are given. Whether binding was seen depends on the method and setting. In cells and extracts the contact can be indirect. A yes stands for co-enrichment or nearness to the bait. Other partners may have been found. Where a sequence is shown, tags or fusion partners need not be part of it.

Amino acid sequences for entries named in this document (tags omitted). Residues count along the entry.
UniProt Q03265, residues 44-553: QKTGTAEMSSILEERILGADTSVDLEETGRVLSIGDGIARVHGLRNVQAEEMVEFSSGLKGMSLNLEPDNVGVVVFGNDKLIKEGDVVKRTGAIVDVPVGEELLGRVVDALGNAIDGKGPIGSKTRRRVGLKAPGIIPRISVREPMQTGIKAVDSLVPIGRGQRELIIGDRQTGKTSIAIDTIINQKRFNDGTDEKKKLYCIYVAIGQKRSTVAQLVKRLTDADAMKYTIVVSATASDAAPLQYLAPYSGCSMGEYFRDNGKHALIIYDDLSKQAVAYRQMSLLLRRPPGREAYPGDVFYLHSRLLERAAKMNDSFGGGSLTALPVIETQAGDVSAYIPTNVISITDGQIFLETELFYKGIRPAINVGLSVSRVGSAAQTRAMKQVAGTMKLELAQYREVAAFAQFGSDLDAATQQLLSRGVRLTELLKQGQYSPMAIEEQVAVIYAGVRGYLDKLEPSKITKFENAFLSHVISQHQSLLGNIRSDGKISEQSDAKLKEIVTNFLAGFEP
UniProt P56480, residues 47-529: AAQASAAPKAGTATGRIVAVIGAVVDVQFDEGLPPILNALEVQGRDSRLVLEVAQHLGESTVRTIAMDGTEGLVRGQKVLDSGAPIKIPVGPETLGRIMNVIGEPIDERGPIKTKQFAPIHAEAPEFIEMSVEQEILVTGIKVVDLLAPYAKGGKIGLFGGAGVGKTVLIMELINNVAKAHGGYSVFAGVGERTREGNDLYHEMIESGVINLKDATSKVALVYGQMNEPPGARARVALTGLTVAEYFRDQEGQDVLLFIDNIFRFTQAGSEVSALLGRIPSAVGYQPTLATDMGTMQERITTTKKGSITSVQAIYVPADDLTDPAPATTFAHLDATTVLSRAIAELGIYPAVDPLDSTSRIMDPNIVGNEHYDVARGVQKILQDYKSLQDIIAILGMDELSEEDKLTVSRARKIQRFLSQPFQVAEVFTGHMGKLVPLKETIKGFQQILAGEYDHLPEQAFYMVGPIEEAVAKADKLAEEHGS
UniProt Q922F4: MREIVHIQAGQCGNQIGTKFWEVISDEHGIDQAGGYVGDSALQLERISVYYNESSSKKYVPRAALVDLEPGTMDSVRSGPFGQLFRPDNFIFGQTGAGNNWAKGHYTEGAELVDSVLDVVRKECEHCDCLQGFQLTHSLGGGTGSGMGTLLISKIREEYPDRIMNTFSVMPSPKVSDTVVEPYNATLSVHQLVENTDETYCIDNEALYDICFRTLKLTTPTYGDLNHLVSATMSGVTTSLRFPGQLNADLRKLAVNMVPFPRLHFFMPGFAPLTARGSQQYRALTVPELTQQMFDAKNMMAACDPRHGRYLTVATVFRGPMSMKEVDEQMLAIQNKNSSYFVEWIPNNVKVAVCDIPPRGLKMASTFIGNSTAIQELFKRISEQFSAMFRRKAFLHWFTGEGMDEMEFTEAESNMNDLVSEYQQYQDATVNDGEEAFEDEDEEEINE
UniProt Q9WU60, residues 83-1428: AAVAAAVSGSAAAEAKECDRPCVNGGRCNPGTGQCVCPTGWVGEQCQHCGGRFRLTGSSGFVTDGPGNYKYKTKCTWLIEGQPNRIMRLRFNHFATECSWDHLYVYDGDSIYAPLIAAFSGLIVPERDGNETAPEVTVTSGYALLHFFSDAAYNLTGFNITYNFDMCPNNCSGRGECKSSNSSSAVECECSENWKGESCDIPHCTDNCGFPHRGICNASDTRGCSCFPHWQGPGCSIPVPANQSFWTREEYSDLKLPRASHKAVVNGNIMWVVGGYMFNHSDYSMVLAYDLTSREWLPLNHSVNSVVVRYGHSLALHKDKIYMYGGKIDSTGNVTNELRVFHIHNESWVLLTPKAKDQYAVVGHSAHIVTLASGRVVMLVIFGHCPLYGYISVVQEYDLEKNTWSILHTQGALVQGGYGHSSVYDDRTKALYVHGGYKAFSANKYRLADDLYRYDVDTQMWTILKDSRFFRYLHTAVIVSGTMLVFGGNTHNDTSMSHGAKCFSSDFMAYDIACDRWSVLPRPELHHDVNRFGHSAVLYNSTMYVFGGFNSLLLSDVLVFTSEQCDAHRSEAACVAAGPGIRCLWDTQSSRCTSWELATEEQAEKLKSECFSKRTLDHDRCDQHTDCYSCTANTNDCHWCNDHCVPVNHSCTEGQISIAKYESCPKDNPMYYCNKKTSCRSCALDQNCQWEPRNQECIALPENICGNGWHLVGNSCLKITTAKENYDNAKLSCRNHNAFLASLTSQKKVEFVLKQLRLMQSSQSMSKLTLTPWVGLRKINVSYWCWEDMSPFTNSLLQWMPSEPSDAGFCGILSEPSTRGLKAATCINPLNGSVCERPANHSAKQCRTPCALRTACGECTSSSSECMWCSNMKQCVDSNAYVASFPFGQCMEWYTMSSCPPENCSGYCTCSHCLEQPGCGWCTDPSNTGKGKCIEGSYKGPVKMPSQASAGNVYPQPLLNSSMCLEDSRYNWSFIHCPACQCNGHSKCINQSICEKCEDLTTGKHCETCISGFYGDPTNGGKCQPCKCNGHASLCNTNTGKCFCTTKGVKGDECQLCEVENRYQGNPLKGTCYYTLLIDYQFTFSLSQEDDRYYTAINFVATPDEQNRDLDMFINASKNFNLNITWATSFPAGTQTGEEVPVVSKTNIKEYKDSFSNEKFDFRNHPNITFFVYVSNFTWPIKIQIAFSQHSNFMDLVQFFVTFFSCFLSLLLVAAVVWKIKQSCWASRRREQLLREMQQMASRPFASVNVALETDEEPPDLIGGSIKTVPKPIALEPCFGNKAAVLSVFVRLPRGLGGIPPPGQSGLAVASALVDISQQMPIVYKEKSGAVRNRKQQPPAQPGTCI
UniProt Q6A051, residues 52-1378: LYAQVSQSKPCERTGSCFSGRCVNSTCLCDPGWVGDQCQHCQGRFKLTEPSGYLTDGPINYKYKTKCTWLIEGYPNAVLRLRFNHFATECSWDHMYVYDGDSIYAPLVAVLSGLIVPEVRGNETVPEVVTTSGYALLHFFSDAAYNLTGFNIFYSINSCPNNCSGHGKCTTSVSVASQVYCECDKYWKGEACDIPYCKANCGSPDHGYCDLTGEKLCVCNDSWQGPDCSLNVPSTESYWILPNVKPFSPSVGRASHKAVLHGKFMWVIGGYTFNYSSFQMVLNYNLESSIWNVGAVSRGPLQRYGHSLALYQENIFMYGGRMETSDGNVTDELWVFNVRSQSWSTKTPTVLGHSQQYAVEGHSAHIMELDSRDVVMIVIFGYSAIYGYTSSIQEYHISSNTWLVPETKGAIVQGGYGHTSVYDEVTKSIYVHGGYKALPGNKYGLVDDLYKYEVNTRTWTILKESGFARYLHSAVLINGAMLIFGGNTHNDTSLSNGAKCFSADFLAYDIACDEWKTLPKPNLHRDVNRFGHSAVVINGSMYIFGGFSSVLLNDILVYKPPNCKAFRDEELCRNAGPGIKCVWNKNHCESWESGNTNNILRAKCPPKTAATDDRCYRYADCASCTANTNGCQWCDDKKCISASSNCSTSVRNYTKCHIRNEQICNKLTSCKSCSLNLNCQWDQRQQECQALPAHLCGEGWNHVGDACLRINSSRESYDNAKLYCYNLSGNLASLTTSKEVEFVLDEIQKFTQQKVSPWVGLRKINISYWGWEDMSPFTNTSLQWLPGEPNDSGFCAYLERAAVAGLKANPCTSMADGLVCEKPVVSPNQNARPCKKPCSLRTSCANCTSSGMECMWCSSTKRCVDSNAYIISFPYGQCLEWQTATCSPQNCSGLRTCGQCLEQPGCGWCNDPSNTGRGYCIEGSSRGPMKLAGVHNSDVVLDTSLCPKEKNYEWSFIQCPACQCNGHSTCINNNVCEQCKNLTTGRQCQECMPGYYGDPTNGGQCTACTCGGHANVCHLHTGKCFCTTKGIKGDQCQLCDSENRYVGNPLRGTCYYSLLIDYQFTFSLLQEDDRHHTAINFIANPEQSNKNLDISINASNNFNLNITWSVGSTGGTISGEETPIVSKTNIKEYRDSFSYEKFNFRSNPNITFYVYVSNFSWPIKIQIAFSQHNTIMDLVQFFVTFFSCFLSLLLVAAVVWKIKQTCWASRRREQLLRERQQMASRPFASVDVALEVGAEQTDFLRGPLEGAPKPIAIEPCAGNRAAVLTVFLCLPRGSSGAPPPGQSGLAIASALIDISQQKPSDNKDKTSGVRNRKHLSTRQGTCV

B1: ADT2 (protein, UniProt P51881 1-298)
chain: MTDAAVSFAKDFLAGGVAAAISKTAVAPIERVKLLLQVQHASKQITADKQYKGIIDCVVRIPKEQGVLSFWRGNLANVIRYFPTQALNFAFKDKYKQIFLGGVDKRTQFWRYFAGNLASGGAAGATSLCFVYPLDFARTRLAADVGKAGAEREFKGLGDCLVKIYKSDGIKGLYQGFNVSVQGIIIYRAAYFGIYDTAKGMLPDPKNTHIFISWMIAQSVTAVAGLTSYPFDTVRRRMMMQSGRKGTDIMYTGTLDCWRKIARDEGSKAFFKGAWSNVLRGMGGAFVLVLYDEIKKYT

Each molecule was assayed against T1, MGRN1 fused to a 1D4 tag (MGRN1–1D4) (mouse) (UniProt Q9D074) (assay: affinity purification with mass spectrometry; MGRN1–1D4 stably expressed in Mgrn1−/−; Rnf157−/− NIH/3T3 cells, captured by 1D4 antibody on Protein A Dynabeads; gel bands analysed by LC-MS; compared to wild-type controls; lysis in 50 mM Tris-HCl pH 8.0, 150 mM NaCl, 1% NP-40, 1 mM DTT).
T1 sequence: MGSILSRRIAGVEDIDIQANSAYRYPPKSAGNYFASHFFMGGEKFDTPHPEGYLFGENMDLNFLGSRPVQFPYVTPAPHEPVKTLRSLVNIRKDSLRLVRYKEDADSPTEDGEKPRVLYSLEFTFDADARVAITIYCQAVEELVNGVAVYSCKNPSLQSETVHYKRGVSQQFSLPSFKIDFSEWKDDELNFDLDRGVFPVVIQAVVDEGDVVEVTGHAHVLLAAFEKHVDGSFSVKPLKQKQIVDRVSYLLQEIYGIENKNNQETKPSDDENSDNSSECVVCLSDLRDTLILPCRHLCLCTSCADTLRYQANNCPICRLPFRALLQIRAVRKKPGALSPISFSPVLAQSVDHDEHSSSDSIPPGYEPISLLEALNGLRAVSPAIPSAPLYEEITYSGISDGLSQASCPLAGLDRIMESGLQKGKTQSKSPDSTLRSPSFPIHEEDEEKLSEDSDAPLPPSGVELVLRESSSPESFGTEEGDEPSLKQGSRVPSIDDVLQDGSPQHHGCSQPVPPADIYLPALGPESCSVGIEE

binding, binds:
ATPA (from UniProt Q03265 44-553)
ATPB (from UniProt P56480 47-529)
TUBB6 (from UniProt Q922F4 1-447)
endogenous ATRN (attractin) (from UniProt Q9WU60 83-1428)
endogenous ATRNL1 (attractin-like 1) (from UniProt Q6A051 52-1378)
B1
